Experimental data published in patent US20220332844A1 (ORIONIS BIOSCIENCES, published 2022).
These are yes or no findings as the source states them, for the method shown. Some entries that bind do so weakly or less than the wild type.

Chains of the proteins cited; added tags and fusions are not shown. Lines headed by an entry give the natural chain unless they say otherwise; changes in a name come on top.
UniProt Q12884: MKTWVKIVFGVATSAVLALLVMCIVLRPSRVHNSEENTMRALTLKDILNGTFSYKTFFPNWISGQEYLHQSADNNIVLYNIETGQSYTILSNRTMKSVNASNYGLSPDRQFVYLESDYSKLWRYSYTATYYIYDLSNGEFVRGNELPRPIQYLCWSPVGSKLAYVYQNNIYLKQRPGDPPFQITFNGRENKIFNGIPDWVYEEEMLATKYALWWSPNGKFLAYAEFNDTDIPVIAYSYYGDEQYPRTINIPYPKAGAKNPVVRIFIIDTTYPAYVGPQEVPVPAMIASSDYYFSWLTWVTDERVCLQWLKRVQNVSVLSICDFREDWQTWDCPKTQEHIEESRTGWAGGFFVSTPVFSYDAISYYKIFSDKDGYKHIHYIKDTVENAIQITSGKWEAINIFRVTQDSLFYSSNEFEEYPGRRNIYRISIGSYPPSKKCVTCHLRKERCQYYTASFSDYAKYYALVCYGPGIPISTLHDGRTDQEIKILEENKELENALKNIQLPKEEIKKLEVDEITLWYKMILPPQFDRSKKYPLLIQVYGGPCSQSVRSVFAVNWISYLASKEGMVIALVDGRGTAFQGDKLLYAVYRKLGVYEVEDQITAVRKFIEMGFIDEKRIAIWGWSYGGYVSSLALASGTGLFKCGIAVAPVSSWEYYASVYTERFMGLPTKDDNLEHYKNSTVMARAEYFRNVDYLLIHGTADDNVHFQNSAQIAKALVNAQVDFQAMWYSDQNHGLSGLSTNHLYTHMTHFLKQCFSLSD

Target: recombinant human FAPa extracellular domain (human) (UniProt Q12884)
Assay: library panning on coated antigen, positive colonies; members in Table 6

Binder | binding
2PE2 (VHH) VHH: QVQLQESGGGSVQVGGSLRLSCADSGSTFTINAMGWYRQAPGKRRDWVAGITSSGVTQYPDSVKGRFTISRDNAKNTVYLQMNSLKPEDTAVYYCNLWPPRASPSGRIYWGQGTQVTVSS | binds
2PE25 (VHH) VHH: QVQLQESGGGLVQVGGSLRLSCAASGSSFIINAMGWYRQAPGKRRELVAGISSDGATHYPDSVKGRFTISRDNAKNIVYLQMNSLKPEDTAVYYCNLWPPRASPSGRVYWGQGTQVTVSS | binds
2PE27 (VHH) VHH: QVQLQESGGGLVQPGGSLRLSCAASGSISSINAMAWYRQAPGKRRELVAGIDGGGVTNYPDSVKGRFTISRDNAKNTVYLQMSSLKPEDTAVYYCNLWPPRASPGGRVYWGQGTQVTVSS | binds
2PE28 (VHH) VHH: QVQLQESGGGLVQIGGSLRLSCADSGSTFSINNAMGWYRQAPGKRRDWVAGITSSGVTNYPDSVKGRFTISRDNAKNTVYLQMNSLKPEDTAVYYCNLWPPRASPSGTIYWGQGTQVTVSS | binds
2PE29 (VHH) VHH: QVQLQESGGGLVQPGGSLRLSCAASGSTSSINAMAWYRQAPGKRRELVAGIDGGGVTNYPDSVKGRFTISRDNAKNTVYLQMSSLKPEDTAVYYCNLWPPRASPGGRVYWGQGTQVTVSS | binds
2PE30 (VHH) VHH: QVQLQESGGGLVQVGGSLRLSCADSGSTFSINNAMGWYRQAPGKRRDWVAGITSSGVTNYPDSVKGRFTISRDNAKNTVYLQMNSLKPEDTAVYYCNLWPPRASPSGRIYWGQGTQVTVSS | binds
2PE32 (VHH) VHH: QVQLQESGGGLVQVGGSLRLSCAASGSTFSINAMGWYRQAPGKRRELVAGISSDDITYYPDSVKGRFTISRDNAKNTVYLQMNSLKPEDTAVYYCNLWPPRASPSGRGYWGQGTQVTVSS | binds
2PE33 (VHH) VHH: QVQLQESGGGLVQPGGSLRLSCADSGSTFSINSMGWYRQAPGKRRDWVAGITTDGITKYPDSLKGRFTISRDNAKNTVYLQMNSLKPEDTAVYYCNLWPPRASPSGRLYWGQGTQVTVSS | binds
2PE39 (VHH) VHH: QVQLQESGGGLVQVGGSLRLSCADSGSTFSVNAVGWYRQAPGKRRDWVAGITSDGVTNYPDSVKGRFTISRDNAKNTVYLQMNSLKPEDTAVYYCNLWPPRASPSGRIYWGQGTQVTVSS | binds
2PE5 (VHH) VHH: QVQLQESGGGLVQPGGSLRLSCAASESTFSINAVAWYRQAPGKRRELVAGISGGGVTSYPDSVKGRFTISRDNAKNIVYLQMSSLKPEDTAVYYCNLWPPRASPGGRVYWGQGTQVTVSS | binds
2PE41 (VHH) VHH: QVQLQESGGGLVQVGGSLRLSCADSGSTFSINSMGWYRQAPGKHRDWVAGITTDGITKYPDSLKGRFTISRDNAKNTVYLQMNSLKPEDTAVYYCNLWPPRASPSGRLYWGQGTQVTVSS | binds
2PE43 (VHH) VHH: QVQLQESGGGLVQPGGSLTLACKGSGVELSRSAMAWYQQAPGKRRDWVAGITSSGVTQYPDSVKGRFTISRDNAKNTVYLQMNSLKPEDAAVYYCNLWPPRASPSGRIYWGQGTQVTVSS | binds
2PE47 (VHH) VHH: QVQLQESGGGLVQVGGSLRLSCAASGSTFSINNAMGWYRQAPGKRREWVAGISSGGVTHYPDSVKGRFTISRDNAKNIVYLQMDSLKPEDTAVYYCNLWPPRASPSGSIYWGQGTQVTVSS | binds
2PE49 (VHH) VHH: QVQLQESGGGLVQAGGSLRLSCTASGSISSINAMAWYRQAPGKRRELVAGIDGGGVTNYPDSVKGRFTISRDNAKNTVYLQMSSLKPEDTAVYYCNLWPPRASPGGRVYWGQGTQVTVSS | binds
2PE55 (VHH) VHH: QVQLQESGGGLVQPGGSLRLSCAASESTFSINAVAWYRQAPGKRRELVAGISGGGVTNHPDSVKGRFTISRDNAKNIVYLQMSSLKPEDTAVYYCNLWPPRASPGGRVYWGQGTQVTVSS | binds
2PE56 (VHH) VHH: QVQLQESGGGLVQPGGSLRLSCADSGSTFTINAMGWYRQAPGKRRDWVAGITSSGVTQYPDSVKGRFTISRDNAKNTVYLQMNSLKPEDTAVYYCNLWPPRASPSGRIYWGQGTQVTVSS | binds
2PE58 (VHH) VHH: QVQLQESGGGLVQVGGSLRLSCAASGSTFSINAMGWYRQAPGKRREWVAGISSSGPPHYPDSVKGRFTISRDNAKNTVYLQMNSLKPEDTAVYYCNLWPPMASPSGAIYWGQGTQVTVSS | binds

Binder | binding
2PE7 (VHH) VHH: QVQLQESGGGLVHAGGSLRLSCADSGSTFSVNAVGWYRQAPGKRRDWVAGITSDGVTNYPDSVKGRFTISRDNAKNTVYLQMNSLKPEDTAVYYCNLWPPRASPSGRIYWGQGTQVTVSS | binds
2PE59 (VHH) VHH: QVQLQESGGGLVQPGGSLRLSCAVSGSIFSLNAMAWYRQAPGKRRELVAGISGGSVTNYPDSVKGRFTISRDSTKNTVYLQMSSLKPEDTAVYYCNLWPPRASPGGRVYWGQGTQVTVSS | binds
2PE60 (VHH) VHH: QVQLQESGGGLVQPGGSLRLSCAASGSTFSINAMAWYRQAPGKRRELVAGISGGGVTNYPDSVKGRFTISRDNAKNTVYLQMSSLKPEDTAVYYCNLWPPRASPGGRVYWGQGTQVTVSS | binds
2PE62 (VHH) VHH: QVQLQESGGGLVQAGGSLRLSCADSSGSTFSINAMAWYRQAPGKRRDWVAGITSDSVTKYPDSVKGRFTISRDNAKNTVYLQMNSLKPEDTAVYYCNLWPPRASPSGRIDWGQGTQVTVSS | binds
2PE63 (VHH) VHH: QVQLQESGGGLVQVGGSLRLSCAASGSTFSINNAMGWYRQAPGKRREWVAGISSGGVTHYPDSVKGRFTISRDNAKNIVYLQMNSLKPEDTAVYYCNLWPPRASPSGSIYWGQGTQVTVSS | binds
2PE67 (VHH) VHH: QVQLQESGGGLVQVGGSLRLSCAASGSTFILNAMGWYRQAPGNRRELVAGISSGGDTNYPDSVKGRFTISRDNANNIVYLQMNSLKLEDTAVYYCNLWPPRASPSGRPYWGQGTQVTVSS | binds
2PE68 (VHH) VHH: QVQLQESGGGLVQPGGSLRLSCAASGSIFSTNAMAWYRQAPGKRRELVAGISGGGVTNYPDSVKGRFTISRDNAKNTVYLQMSSLKPEDTAVYYCNLWPPRAPPDGRVYWGQGTQVTVSS | binds
2PE71 (VHH) VHH: QVQLQESGGGMVQSGRSLRLSCLASVNIVNLNSVGWYRQAPGQQRELVASITSAGSTNYAESVKGRFTISRDNSKNTVYLQMNSLKPSDTAVYYCNLWPPRVSPSGRGYWGQGTQVTVSS | binds
2PE72 (VHH) VHH: QVQLQESGGGLVQPGGSLRLSCAASGSISSINAMAWYRQAPGRRRELVAGIDGGGVTNYPDSVKGRFTISRDHAKNTVYLQMSSLKPEDTAVYYCNLWPPRASPGGRVYWGQGTQVTVSS | binds
2PE76 (VHH) VHH: QVQLQESGGGLVQVGGSLRLSCAASGSTFSINNAMGWYRQAPGKRREWVAGISSGGVTHYPDSVKGRFAISRDNAKNIVYLQMDSLKPEDTAVYYCNLWPPRASPSGSIYWGQGTQVTVSS | binds
2PE13 (VHH) VHH: QVQLQESGGGLVQVGGSLRLSCAASGSTFILNAMAWYRQAPGNRRELVAGISSGGDTNYPDSVKGRFTISRDNANNIVYLQMNSLKLEDTAVYYCNLWPPRASPSGRVYWGQGTQVTVSS | binds
2PE83 (VHH) VHH: QVQLQESGGGLVQVGGSLRLSCADSGSTFSINSMGWYRQAPGKRRDWVAGITTDGITKYPDSLKGRFTISRDNAKNTVYLQMNSLKPEDTAVYYCNLWPPRASPSGRLYWGQGTQVTVSS | binds
2PE84 (VHH) VHH: QVQLQESGGGLVQAGGSLRLSCAASGSISSLNAMGWYRQAPGKQREWVAGITSGGSTNYADSVKGRFTILRDNAKNTVYLQMSSLKFEDTAVYYCNLWPPRASPSGAVYWGQGTQVTVSS | binds
2PE86 (VHH) VHH: QVQLQESGGGLVQVGGSLRLSCADSGSTFSINAMGWYRQAPGKRRDWVAGITSDGVTKYPDSVKGRFTISRDNAKNTVYLQMNSLKPEDTAVYYCNLWPPRVSPSGRIYWGQGTQVTVSS | binds
2PE87 (VHH) VHH: QVQLQESGGGLVQVGGSLRLSCAASGSTFSINNAMGWYRQAPGKRREWVAGISSGGVTHYPDSVKGRFTISRDNAKNIVYLQMDSLKPEDTAAYYCNLWPPRASPSGSIYWGQGTQVTVSS | binds
2PE88 (VHH) VHH: QVQLQESGGGLVQPGGSLRLSCAASESTFSINAVAWYRQAPGKRRELVAGISGGGVTNYPDSVKGRFTISRDNAKNIVYLQMSSLKPEDTAVYYCNLWPPRAPPGGRVYWGQGTQVTVSS | binds
2PE95 (VHH) VHH: QVQLQESGGGLVQVGGSLRLSCADSGSTFSINAMGWYRQAPGKRRDWVAGITSSGVTKYPDSVKGRFTISRDNAKNTVYLQMNSLKPEDTAVYYCNLWPPRASPSGRIYWGQGTQVTVSS | binds
